Data: PubChem BioAssay AID248 (DTP/NCI, 2004)
The list does not hold the whole screen: it gathers some chemical classes. Other doses and runs of a compound may be missing. T/C gives the treated animals as a percentage of the vehicle group. Where survival is the endpoint, this PubChem deposit counts one and a half times the control or more as active, and values a quarter to a half above the control carry no call in these data; other NCI protocols may use other cut-offs. Some entries show no survivor count and are marked so; the dose need not have been tolerated. Schedule codes are those of the source, taken here to give the interval after Q, in days (D) or hours (H), and the number of doses after X. Marks such as (2×) count equal records among those shown. Some doses were run more than once; the values are given in rising order. Some schedules carry Z or #; the key to these is not given.

Tested on: L1210 leukemia ip in BDF1 mice, survival T/C
Assay: NCI In Vivo Anticancer Drug Screen. Data for tumor model L1210 Leukemia (intraperitoneal) in B6D2F1 (BDF1) mice
Details: higher T/C = longer survival

CN(CCCl)CCCl
T/C (T/C endpoint: mean survival time, dose: 120.0 micrograms/kg/injection, schedule: Q01DX009 (ip), vehicle: water): 111 [survivor count not shown] and 124 % of control [survivor count not shown] | T/C (T/C endpoint: mean survival time, dose: 120.0 micrograms/kg/injection, schedule: Q01DX Z (ip), vehicle: saline): 147 % of control [survivor count not shown] | T/C (T/C endpoint: mean survival time, dose: 120.0 micrograms/kg/injection, schedule: Q#A X Z (ip), vehicle: saline): 149 % of control [survivor count not shown] | T/C (T/C endpoint: mean survival time, dose: 125.0 micrograms/kg/injection, schedule: Q01DX001 (ip), vehicle: saline): 129 [survivor count not shown], 130 [survivor count not shown], 137 [survivor count not shown] (4×), 142 % of control [survivor count not shown] (2×) | T/C (T/C endpoint: mean survival time, dose: 143.0 micrograms/kg/injection, schedule: Q01DX Z (ip), vehicle: carboxymethylcellulose (CMC)): 161 % of control [survivor count not shown] | T/C (T/C endpoint: mean survival time, dose: 180.0 micrograms/kg/injection, schedule: Q01DX Z (ip), vehicle: carboxymethylcellulose (CMC)): 142 % of control [survivor count not shown] | T/C (T/C endpoint: mean survival time, dose: 190.0 micrograms/kg/injection, schedule: Q03DX Z (ip), vehicle: saline): 151 % of control [survivor count not shown] | T/C (T/C endpoint: mean survival time, dose: 200.0 micrograms/kg/injection, schedule: Q01DX Z (ip), vehicle: carboxymethylcellulose (CMC)): 150 % of control [survivor count not shown] | T/C (T/C endpoint: mean survival time, dose: 220.0 micrograms/kg/injection, schedule: Q01DX001 (ip), vehicle: saline): 138 % of control [survivor count not shown] | T/C (T/C endpoint: mean survival time, dose: 225.0 micrograms/kg/injection, schedule: Q01DX001 (ip), vehicle: saline): 146 % of control [survivor count not shown] | T/C (T/C endpoint: mean survival time, dose: 225.0 micrograms/kg/injection, schedule: Q07DX Z (ip), vehicle: saline): 146 % of control [survivor count not shown] | T/C (T/C endpoint: mean survival time, dose: 230.0 micrograms/kg/injection, schedule: Q01DX009 (ip), vehicle: water): 151 [survivor count not shown] and 156 % of control [survivor count not shown] | T/C (T/C endpoint: mean survival time, dose: 238.0 micrograms/kg/injection, schedule: Q01DX Z (ip), vehicle: carboxymethylcellulose (CMC)): 146 % of control [survivor count not shown] | T/C (T/C endpoint: mean survival time, dose: 248.0 micrograms/kg/injection, schedule: Q01DX017 (ip), vehicle: saline): 152 % of control [survivor count not shown] | T/C (T/C endpoint: mean survival time, dose: 248.0 micrograms/kg/injection, schedule: Q02DX009 (ip), vehicle: saline): 154 % of control [survivor count not shown] | T/C (T/C endpoint: mean survival time, dose: 250.0 micrograms/kg/injection, schedule: Q01DX001 (ip), vehicle: saline): 135 [survivor count not shown] (2×), 139 [survivor count not shown] (2×), 140 [survivor count not shown], 142 [survivor count not shown], 144 [survivor count not shown], 145 % of control [survivor count not shown] | T/C (T/C endpoint: mean survival time, dose: 250.0 micrograms/kg/injection, schedule: Q01DX Z (ip), vehicle: saline): 149 % of control [survivor count not shown] | T/C (T/C endpoint: mean survival time, dose: 250.0 micrograms/kg/injection, schedule: Q#A X Z (ip), vehicle: saline): 169 % of control [survivor count not shown] | T/C (T/C endpoint: mean survival time, dose: 300.0 micrograms/kg/injection, schedule: Q01DX Z (ip), vehicle: carboxymethylcellulose (CMC)): 146 % of control [survivor count not shown] | T/C (T/C endpoint: mean survival time, dose: 380.0 micrograms/kg/injection, schedule: Q03DX Z (ip), vehicle: saline): 149 % of control [survivor count not shown] | T/C (T/C endpoint: mean survival time, dose: 450.0 micrograms/kg/injection, schedule: Q01DX001 (ip), vehicle: saline): 157 % of control [survivor count not shown] | T/C (T/C endpoint: mean survival time, dose: 450.0 micrograms/kg/injection, schedule: Q01DX009 (ip), vehicle: water): 101 [survivor count not shown] and 134 % of control [survivor count not shown] | T/C (T/C endpoint: mean survival time, dose: 450.0 micrograms/kg/injection, schedule: Q07DX Z (ip), vehicle: saline): 155 % of control [survivor count not shown] | T/C (T/C endpoint: mean survival time, dose: 500.0 micrograms/kg/injection, schedule: Q01DX001 (ip), vehicle: saline): 137 [survivor count not shown], 140 [survivor count not shown], 142 [survivor count not shown], 144 [survivor count not shown], 148 [survivor count not shown] (2×), 151 [survivor count not shown], 160 % of control [survivor count not shown] | T/C (T/C endpoint: mean survival time, dose: 500.0 micrograms/kg/injection, schedule: Q01DX Z (ip), vehicle: carboxymethylcellulose (CMC)): 120 % of control [survivor count not shown] | T/C (T/C endpoint: mean survival time, dose: 750.0 micrograms/kg/injection, schedule: Q03DX Z (ip), vehicle: saline): 160 % of control [survivor count not shown] | T/C (T/C endpoint: mean survival time, dose: 900.0 micrograms/kg/injection, schedule: Q01DX001 (ip), vehicle: saline): 152 % of control [survivor count not shown] | T/C (T/C endpoint: mean survival time, dose: 900.0 micrograms/kg/injection, schedule: Q07DX Z (ip), vehicle: saline): 158 % of control [survivor count not shown] | T/C (T/C endpoint: mean survival time, dose: 1000.0 micrograms/kg/injection, schedule: Q01DX001 (ip), vehicle: saline): 140 [survivor count not shown], 144 [survivor count not shown], 146 [survivor count not shown], 156 [survivor count not shown], 157 [survivor count not shown], 158 [survivor count not shown], 173 [survivor count not shown], 175 % of control [survivor count not shown] | T/C (T/C endpoint: mean survival time, dose: 1000.0 micrograms/kg/injection, schedule: Q01DX017 (ip), vehicle: saline): 158 % of control [survivor count not shown] | T/C (T/C endpoint: mean survival time, dose: 1000.0 micrograms/kg/injection, schedule: Q02DX009 (ip), vehicle: saline): 163 % of control [survivor count not shown] | T/C (T/C endpoint: mean survival time, dose: 1800.0 micrograms/kg/injection, schedule: Q01DX001 (ip), vehicle: saline): 168 % of control [survivor count not shown] | T/C (T/C endpoint: mean survival time, dose: 1800.0 micrograms/kg/injection, schedule: Q07DX Z (ip), vehicle: saline): 192 % of control [survivor count not shown] | T/C (T/C endpoint: median survival time, dose: 0.06 mg/kg/injection, schedule: Q01DX017 (ip), vehicle: saline): 111 [survivor count not shown], 133 [survivor count not shown], 144 % of control [survivor count not shown] | T/C (T/C endpoint: median survival time, dose: 0.12 mg/kg/injection, schedule: Q01DX009 (ip), vehicle: saline): 130 % of control [survivor count not shown] (2×) | T/C (T/C endpoint: median survival time, dose: 0.12 mg/kg/injection, schedule: Q01DX017 (ip), vehicle: saline): 122 [survivor count not shown] and 133 % of control [survivor count not shown] | T/C (T/C endpoint: median survival time, dose: 0.13 mg/kg/injection, schedule: Q01DX017 (ip), vehicle: saline): 124 [survivor count not shown] and 133 % of control [survivor count not shown] | T/C (T/C endpoint: median survival time, dose: 0.25 mg/kg/injection, schedule: Q01DX009 (ip), vehicle: saline): 139 [survivor count not shown] and 145 % of control [survivor count not shown] | T/C (T/C endpoint: median survival time, dose: 0.25 mg/kg/injection, schedule: Q01DX017 (ip), vehicle: saline): 133 [survivor count not shown] (2×), 144 [survivor count not shown], 150 % of control [survivor count not shown] | T/C (T/C endpoint: median survival time, dose: 0.5 mg/kg/injection, schedule: Q01DX009 (ip), vehicle: saline): 121 [survivor count not shown] and 140 % of control [survivor count not shown] | T/C (T/C endpoint: median survival time, dose: 0.5 mg/kg/injection, schedule: Q01DX017 (ip), vehicle: saline): 88 [survivor count not shown], 133 [survivor count not shown], 136 [survivor count not shown], 166 % of control [survivor count not shown] | T/C (T/C endpoint: median survival time, dose: 1.0 mg/kg/injection, schedule: Q01DX009 (ip), vehicle: saline): 100 % of control [survivor count not shown] (2×) | T/C (T/C endpoint: median survival time, dose: 1.0 mg/kg/injection, schedule: Q01DX017 (ip), vehicle: saline): 103 [survivor count not shown] and 133 % of control [survivor count not shown]
